The text below walks through data of article PMC7605537.

Sequences of proteins named here, by UniProt entry; tags and fusion partners are left off.
UniProt P63208: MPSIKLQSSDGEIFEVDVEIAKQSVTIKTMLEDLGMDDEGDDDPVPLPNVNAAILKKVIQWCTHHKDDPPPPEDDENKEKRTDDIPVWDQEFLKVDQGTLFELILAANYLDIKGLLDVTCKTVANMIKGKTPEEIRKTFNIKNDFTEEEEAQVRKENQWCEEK

These are yes or no findings as the source states them, for the method shown. Binding seen in cells or lysates may run through a third protein. Some results given as binding are weak or reduced against the parent protein; the word gives no strength. Where a sequence is shown, tags or fusion partners need not be part of it.

This assay deals with T1, HA-FBXO2 (F-box protein 2) (UniProt Q9UK22).
T1 sequence: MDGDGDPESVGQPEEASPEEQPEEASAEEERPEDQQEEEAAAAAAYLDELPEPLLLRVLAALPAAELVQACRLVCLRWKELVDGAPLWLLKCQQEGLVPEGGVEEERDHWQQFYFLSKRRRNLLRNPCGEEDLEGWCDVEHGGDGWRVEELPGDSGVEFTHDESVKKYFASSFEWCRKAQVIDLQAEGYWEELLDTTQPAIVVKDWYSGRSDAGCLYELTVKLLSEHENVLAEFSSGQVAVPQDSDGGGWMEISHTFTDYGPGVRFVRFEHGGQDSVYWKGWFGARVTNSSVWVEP
Description: co-IP; I1061T human fibroblasts electroporated with HA-FBXO2, 48 h later treated with 2 mM LLOMe for 2 h (or vehicle); cells cross-linked with DSP, lysed in 1% NP-40 buffer pH 7.4; immunoprecipitated with HA antibody or Ctrl IgG; blots for LAMP2 and Skp1.

Turning to “Skp1 (S phase kinase-associated protein 1) (from UniProt P63208 1-163)”, the binding entry is reported as “binds”.
